# According to paper PMC12040169 (PLOS Biology, 2025):
# This is one part of the list.
# System: T1, CTL2-GFP (C. trachomatis L2/434/Bu, GFP-expressing)
# T1 construct: L2/434/Bu, GFP-expressing
# Set-up: species or system HeLa; Intracellular C. trachomatis growth in HeLa cells, bulk GFP fluorescence relative to DMSO
# Settings: bulk GFP, single well; 28.5 h, 10 µM; inhibitor
row,SMILES,% of control remaining [%]
1,CC1=C(C(=O)Nc2ccc(Cl)cc2Cl)SCCO1 [CBK057784],112.021
2,OCC1COCCN(c2ncnc3c2CCC3)C1 (stereo not drawn) [CBK304373],112.796
3,COCC(=O)N1CCC(NC(=O)N(CCc2ccccc2)Cc2ccccc2)CC1 [CBK174877],114.067
4,Fc1ccc(-c2ccc(N3CCN(c4ccncc4)CC3)nc2)cc1Cl [CBK036821],145.049
5,O=C(CSc1ccccc1)Nc1cnc(-c2ccc(F)cc2)c(-c2ccco2)n1 [CBK037196],164.768
6,COc1ccc(OCCN2C(=O)CNC2=S)cc1 [CBK007177],136.899
7,CCn1c(=O)n(CC(=O)N2CCCCCC2)c2cccnc21 [CBK283942],115.773
8,Nc1nc(CC(=O)N2CCCCC2)cs1 [CBK049866],118.475
9,Cc1n[nH]c(C)c1Sc1ccccc1/N=C/c1ccccc1O [CBK262068],122.133
10,CC(C)(N)CC(=O)N1CCN(c2ncccn2)CC1 [CBK144532],106.567
11,CC(=O)Nc1cccc(-n2ncc(-c3cccnc3)n2)c1 [CBK112811],118.249
12,CCOC(=O)N1CCC(NC(=O)c2ccc3nc4ccccc4c(=O)n3c2)CC1 [CBK294447],170.635
13,Cc1cccc(C2(Cn3cncc3-c3cnn(C)c3)CCOCC2)c1 [CBK281765],161.67
14,CCc1cccc2c1Sc1ccccc1CC2N1CCN(C)CC1 (stereo not drawn) [CBK026248G],87.0576
15,Cc1noc(NS(=O)(=O)c2ccc(NC(=O)c3cc(-c4ccccc4Cl)nc4ccccc34)cc2)c1C [CBK296108],145.793
16,COc1cc(-c2nc3ccccn3c2/N=C/c2ccc(-c3ccc([N+](=O)[O-])cc3)o2)ccc1O [CBK262288],121.998
17,CS(=O)(=O)c1ccc(-c2cccc(COC3CCN(C(=O)Cc4ccc(C#N)cc4)CC3)c2)cc1 [CBK149513],85.2434
18,CC(=O)c1cc2c(N)c(C(N)=O)sc2nc1C [CBK100769],71.5157
19,COc1ccc2[nH]cc(CCNC(=O)c3cc(C)[nH]n3)c2c1 [CBK116206],115.619
20,COc1cc(C)c(CN2CCN(C(=O)COc3cc4ccccc4cc3C(=O)O)CC2)cc1OC [CBK296968],123.622
21,CCCn1c(NC(=O)C2CCCN2S(=O)(=O)CC)nc2ccccc21 (stereo not drawn) [CBK295624],124.589
22,Cc1nn(C)c2ncc(C(=O)N(C)Cc3ccc(C(C)(C)C)cc3)cc12 [CBK305657],78.9365
23,COc1cccc(NC(=O)CCCC(=O)O)c1 [CBK261324],100
24,CNC(=O)CCc1ccccc1NC(=O)NCc1cnc(SC)n1C [CBK307507],121.438
25,C[C@H](Nc1nc(-c2cccc(/C=C/C(=O)O)c2)cnc1N)c1ccccc1 [CBK063754],119
26,CC(=O)c1ccc(OCc2nc(N)nc(Nc3ccccc3)n2)cc1 [CBK297155],134.633

# A section from further up, for reference:
row,SMILES,% of control remaining [%]
4,Fc1ccc(-c2ccc(N3CCN(c4ccncc4)CC3)nc2)cc1Cl [CBK036821],145.049
5,O=C(CSc1ccccc1)Nc1cnc(-c2ccc(F)cc2)c(-c2ccco2)n1 [CBK037196],164.768
6,COc1ccc(OCCN2C(=O)CNC2=S)cc1 [CBK007177],136.899

# Carrying on.

row,SMILES,% of control remaining [%]
1,CCOC(=O)CC(=O)CSc1nc(N)c2c3c(sc2n1)CCCC3 [CBK264942],82.021
2,Brc1n[nH]c2nc(NCc3ccco3)ncc12 [CBK022327],110.953
3,CCCC(=O)c1ccc(S(=O)(=O)N2CCCN(Cc3ccc(F)c(C#N)c3)CC2)cc1 [CBK062910],92.7573
4,CC(=O)C(Sc1nc(N2CCOCC2)nc(N2CCOCC2)n1)C(=O)Nc1ccccc1 (stereo not drawn) [CBK266643],154.109
5,O=C(NCCN1CCC(O)(c2cccc(F)c2)CC1)C1CC=CCC1 (stereo not drawn) [CBK282451],137.794
6,CC(C)(C)NC(=O)COc1ccc(CNc2nc[nH]n2)cc1 [CBK288179],121.747
7,CCCc1nc(CN2CCNC(=O)C2c2ccccc2C(F)(F)F)no1 (stereo not drawn) [CBK304123],132.543
8,O=C(Nc1ccc2c(c1)OCO2)Nc1c(Br)cnc2ncccc12 [CBK105596],109.344
9,O=C1COCC(=O)N1c1ccccn1 [CBK006233],120.232
10,COC(=O)CCNc1nc(-c2ccc(Br)cc2)nc2ccccc12 [CBK263628],134.169
11,O=C(N[C@H]1CCN2C(=O)c3cc(-c4ccccc4)ccc3NC(=O)[C@H]12)C1CCCC1 [CBK289349],125.295
12,C[N+](C)(C)CCCCOC(c1ccccc1)c1ccccc1 [CBK261076I],109.868
13,Cc1cc2c(cc1C)C(O)CC1(CCN(C(=O)C3CCCC3)CC1)O2 (stereo not drawn) [CBK282743],134.075
14,Cc1ccc(C(=O)NCc2ccco2)c(N2CCOCC2)n1 [CBK076410],94.5176
15,COc1cccc(Nc2[nH]nnc2C(=O)Nc2cccc(C)c2C)c1 [CBK288028],112.407
16,Clc1ccc(CSCCn2cccc2)cc1 [CBK021366],129.052
17,COc1ccc([C@H]2CN(Cc3ccccc3)[C@@H]3CCN(C(=O)Cc4ccccc4)C[C@H]23)cc1 [CBK286285],31.5422
18,Cc1cc(C)nc(Sc2nnc(-c3ccc(C)c(S(=O)(=O)N4CCOCC4)c3)c3ccccc23)n1 [CBK264400],120.907
19,O=C1Nc2ccccc2S(=O)(=O)N2CCCC12 (stereo not drawn) [CBK282864],108.529
20,Cc1nn(C)c(N2CCNCC2)c1NC(=O)C(C)c1ccccc1 (stereo not drawn) [CBK045929T],85.7319
21,COc1ccc2cc(CNc3ccc(CCc4nc5ccccc5n4C)cc3)c(=O)[nH]c2c1 [CBK286159],109.983
22,O=C(CN1CCC(c2ccccc2F)CC1)N1CCCC1 [CBK283578],127.043
23,COc1ccc(-c2cc(C(=O)NC3CCCCC3C)c3ccccc3n2)cc1 (stereo not drawn) [CBK294459],111.181
24,CC1CCCCN1C(=O)CCc1nc2sc3c(c2c(=O)[nH]1)CCCC3 (stereo not drawn) [CBK306086],63.1158
25,O=C(NC(c1ccccc1)c1ccsc1)C1CCN(CCc2ccccc2)CC1 (stereo not drawn) [CBK148433],97.1403
